These are yes or no findings as the source states them, for the method shown. In cells and extracts the contact can be indirect. Some binding calls cover weakened binding; strength is not graded here.

Amino acid sequences for entries named in this document (tags omitted).
UniProt Q8TAQ2: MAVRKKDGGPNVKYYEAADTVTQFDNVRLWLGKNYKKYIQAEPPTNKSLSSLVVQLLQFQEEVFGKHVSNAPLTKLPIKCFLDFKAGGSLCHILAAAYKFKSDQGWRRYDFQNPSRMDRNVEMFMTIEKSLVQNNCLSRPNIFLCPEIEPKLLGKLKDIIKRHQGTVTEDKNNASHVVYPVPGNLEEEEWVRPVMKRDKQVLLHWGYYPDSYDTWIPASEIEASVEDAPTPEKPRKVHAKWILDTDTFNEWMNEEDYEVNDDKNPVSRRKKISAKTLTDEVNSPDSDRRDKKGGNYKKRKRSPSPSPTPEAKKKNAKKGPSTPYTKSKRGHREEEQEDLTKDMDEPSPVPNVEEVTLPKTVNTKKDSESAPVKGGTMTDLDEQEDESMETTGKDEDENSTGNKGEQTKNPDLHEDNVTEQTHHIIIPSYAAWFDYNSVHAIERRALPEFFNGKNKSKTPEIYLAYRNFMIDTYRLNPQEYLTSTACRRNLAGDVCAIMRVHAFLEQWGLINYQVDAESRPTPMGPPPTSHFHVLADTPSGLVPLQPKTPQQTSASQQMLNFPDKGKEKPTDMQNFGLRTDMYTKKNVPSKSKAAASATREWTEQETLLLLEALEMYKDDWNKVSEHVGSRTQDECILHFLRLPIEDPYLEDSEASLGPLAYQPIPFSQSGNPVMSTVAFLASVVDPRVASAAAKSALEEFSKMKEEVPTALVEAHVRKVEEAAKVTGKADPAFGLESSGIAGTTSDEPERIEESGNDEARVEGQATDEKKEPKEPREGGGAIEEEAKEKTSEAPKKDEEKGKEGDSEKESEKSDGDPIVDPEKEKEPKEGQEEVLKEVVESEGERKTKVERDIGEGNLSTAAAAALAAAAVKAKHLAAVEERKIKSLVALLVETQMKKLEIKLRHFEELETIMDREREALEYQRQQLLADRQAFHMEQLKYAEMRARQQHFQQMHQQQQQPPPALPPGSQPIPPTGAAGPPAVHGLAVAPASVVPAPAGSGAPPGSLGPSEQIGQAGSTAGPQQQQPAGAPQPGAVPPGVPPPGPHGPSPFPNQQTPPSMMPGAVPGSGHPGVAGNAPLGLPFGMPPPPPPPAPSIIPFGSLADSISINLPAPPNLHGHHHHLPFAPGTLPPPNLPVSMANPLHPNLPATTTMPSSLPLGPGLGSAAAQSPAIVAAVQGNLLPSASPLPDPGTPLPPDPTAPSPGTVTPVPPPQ
UniProt P51532: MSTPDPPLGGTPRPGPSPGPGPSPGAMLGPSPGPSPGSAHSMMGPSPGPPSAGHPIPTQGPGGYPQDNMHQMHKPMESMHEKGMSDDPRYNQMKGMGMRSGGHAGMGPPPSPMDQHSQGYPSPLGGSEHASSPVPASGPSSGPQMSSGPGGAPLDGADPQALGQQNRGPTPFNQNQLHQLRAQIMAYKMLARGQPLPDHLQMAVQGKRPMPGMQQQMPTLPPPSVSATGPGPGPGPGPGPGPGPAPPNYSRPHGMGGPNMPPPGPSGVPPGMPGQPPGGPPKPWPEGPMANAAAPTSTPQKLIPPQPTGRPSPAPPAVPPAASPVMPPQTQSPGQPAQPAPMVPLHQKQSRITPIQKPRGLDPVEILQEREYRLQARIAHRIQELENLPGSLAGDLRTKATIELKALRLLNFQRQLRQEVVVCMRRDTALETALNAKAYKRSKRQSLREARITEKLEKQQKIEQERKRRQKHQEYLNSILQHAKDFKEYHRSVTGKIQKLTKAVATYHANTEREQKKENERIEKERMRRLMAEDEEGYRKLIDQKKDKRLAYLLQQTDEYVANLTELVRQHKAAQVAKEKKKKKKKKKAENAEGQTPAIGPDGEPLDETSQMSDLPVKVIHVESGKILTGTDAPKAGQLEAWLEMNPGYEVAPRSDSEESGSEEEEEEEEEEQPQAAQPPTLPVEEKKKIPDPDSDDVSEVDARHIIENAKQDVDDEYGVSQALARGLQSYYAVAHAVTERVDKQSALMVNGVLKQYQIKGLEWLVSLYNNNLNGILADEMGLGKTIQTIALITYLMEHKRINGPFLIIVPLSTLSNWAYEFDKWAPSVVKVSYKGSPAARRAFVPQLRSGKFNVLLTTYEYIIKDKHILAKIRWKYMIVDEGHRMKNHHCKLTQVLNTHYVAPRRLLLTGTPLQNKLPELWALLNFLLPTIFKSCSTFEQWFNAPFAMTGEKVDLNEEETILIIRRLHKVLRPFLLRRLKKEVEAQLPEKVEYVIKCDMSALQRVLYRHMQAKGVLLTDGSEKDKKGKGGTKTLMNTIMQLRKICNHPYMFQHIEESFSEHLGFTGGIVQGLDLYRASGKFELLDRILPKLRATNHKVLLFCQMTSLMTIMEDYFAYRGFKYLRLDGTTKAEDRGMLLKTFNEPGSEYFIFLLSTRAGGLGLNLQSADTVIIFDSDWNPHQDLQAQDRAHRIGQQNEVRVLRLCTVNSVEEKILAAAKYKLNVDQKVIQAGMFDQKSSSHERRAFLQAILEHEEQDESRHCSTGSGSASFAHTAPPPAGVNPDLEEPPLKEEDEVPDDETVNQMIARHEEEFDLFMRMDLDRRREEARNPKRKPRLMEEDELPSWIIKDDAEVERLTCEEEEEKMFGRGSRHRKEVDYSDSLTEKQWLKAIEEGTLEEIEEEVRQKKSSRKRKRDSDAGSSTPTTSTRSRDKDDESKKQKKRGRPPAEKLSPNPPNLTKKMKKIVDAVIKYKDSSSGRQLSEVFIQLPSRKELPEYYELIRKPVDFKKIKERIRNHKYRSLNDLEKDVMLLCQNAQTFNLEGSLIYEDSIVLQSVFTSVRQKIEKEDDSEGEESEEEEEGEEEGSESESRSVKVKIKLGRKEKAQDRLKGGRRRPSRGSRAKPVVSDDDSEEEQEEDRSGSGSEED

For assay [1], the target named is FLAG-tagged SMARCC2 (wildtype) (human) (UniProt Q8TAQ2). Description: proximity ligation.
Assay [2] shares this target. Description: co-IP.

Regarding SMARCA4 (from UniProt P51532 1-1647), the binding result in assay [1] and in assay [2] was “binds” throughout.

Source of the values: paper doi:10.1101/2023.03.30.23287962.
